Test results from PMC5869696.
No constants are given. Whether binding was seen depends on the method and setting. For part of these data: Binding calls can cover weak binding; strength is not graded here. One block for each molecule: values may come before it.

Chains of the proteins cited; added tags and fusions are not shown. Lines headed by an entry give the natural chain unless they say otherwise; changes in a name come on top.
UniProt Q94CV1: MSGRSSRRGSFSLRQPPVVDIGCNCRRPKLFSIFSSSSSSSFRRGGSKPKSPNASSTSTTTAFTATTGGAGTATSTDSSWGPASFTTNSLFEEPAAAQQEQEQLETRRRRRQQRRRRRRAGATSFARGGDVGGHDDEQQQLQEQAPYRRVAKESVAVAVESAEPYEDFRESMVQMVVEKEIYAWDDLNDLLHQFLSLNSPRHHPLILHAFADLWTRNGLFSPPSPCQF

Assays:
Experiment in all cases: two-hybrid; pairwise tests; baits in pGBKT7 (GS9-C1, OsOFP14, OsGSK2), full-length preys in pGADT7
[1] = molecular target: T1, OsGSK2, entire coding region in pGBKT7 (rice) (UniProt Q60EZ2)
T1 sequence: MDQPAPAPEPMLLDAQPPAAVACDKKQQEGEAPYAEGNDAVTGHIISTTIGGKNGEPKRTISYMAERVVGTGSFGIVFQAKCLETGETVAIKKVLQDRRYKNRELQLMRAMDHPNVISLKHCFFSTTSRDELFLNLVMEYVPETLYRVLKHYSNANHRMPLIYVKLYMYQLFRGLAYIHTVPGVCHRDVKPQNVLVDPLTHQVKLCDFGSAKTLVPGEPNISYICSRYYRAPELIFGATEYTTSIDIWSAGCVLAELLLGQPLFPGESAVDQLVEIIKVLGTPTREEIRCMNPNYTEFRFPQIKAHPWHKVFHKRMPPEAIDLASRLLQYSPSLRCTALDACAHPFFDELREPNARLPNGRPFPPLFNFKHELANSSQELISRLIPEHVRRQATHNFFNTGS

[2] = molecular target: GS9-C1 (C-terminal truncation of GS9, residues 238-346) in pGBKT7 (rice (Oryza sativa japonica, Nipponbare))
[3] = molecular target: OsOFP14, entire coding region in pGBKT7 (rice)

- binding [1]: binds
Molecule: OsOFP8, full-length cDNA in pGADT7 (from UniProt Q94CV1)

- binding [2]: no binding
- binding [3]: no binding
B1: OsGSK2, full-length cDNA in pGADT7 (enzyme, UniProt Q60EZ2 1-402)
chain: T1 sequence
